Data as given in PubChem BioAssay AID493246 (Drosophila RNAi Screening Center, 2011)

- Aim: 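Genome-wide search for dsRNAs that reduce cell number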 (primary screen)
- Cells: Drosophila Kc and S2R+ cells
- Knock-down reagent: long dsRNA against Drosophila genes
- Detection: 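Cell number per well after knock-down, printed as raw plate values; calls were based on per-plate z-scores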
- Direction: Kc cell number and S2R+ cell number: higher = more cells remaining
- Rule for the call: 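Counted as a hit if cell number falls by a z-score of at least 3 within its plate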
In all, the deposit lists about 21,000 reagents; this is a random part of those with a known target gene and a result. In the full data, 429 (2%) got an active call. 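Values are raw and not normalised between plates; calls rest on per-plate z-scores that were not deposited.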 Reagents against one gene are numbered here. No sequences are given here. Not stated in the record: the amount of reagent, the time to read-out.

{"target": "TwdlD", "reagent no.": 1, "Kc cell number, rep 1": 1.46e6, "Kc cell number, rep 2": 1.46e6, "S2R+ cell number, rep 1": 9.76e5, "S2R+ cell number, rep 2": 1.11e6, "activity call": "inactive"}
{"target": "Send1", "reagent no.": 1, "Kc cell number, rep 1": 1.45e6, "Kc cell number, rep 2": 1.50e6, "S2R+ cell number, rep 1": 1.04e6, "S2R+ cell number, rep 2": 1.20e6, "activity call": "inactive"}
{"target": "CG43322", "reagent no.": 1, "Kc cell number, rep 1": 1.49e6, "Kc cell number, rep 2": 1.34e6, "S2R+ cell number, rep 1": 1.08e6, "S2R+ cell number, rep 2": 1.23e6, "activity call": "inactive"}
{"target": "Sf3b2", "reagent no.": 1, "Kc cell number, rep 1": 8.45e5, "Kc cell number, rep 2": 1.02e6, "S2R+ cell number, rep 1": 3.43e5, "S2R+ cell number, rep 2": 5.41e5, "activity call": "inactive"}
{"target": "SecS", "reagent no.": 1, "Kc cell number, rep 1": 1.41e6, "Kc cell number, rep 2": 1.56e6, "S2R+ cell number, rep 1": 1.24e6, "S2R+ cell number, rep 2": 1.32e6, "activity call": "inactive"}
{"target": "CG5103", "reagent no.": 1, "Kc cell number, rep 1": 1.33e6, "Kc cell number, rep 2": 1.43e6, "S2R+ cell number, rep 1": 1.21e6, "S2R+ cell number, rep 2": 1.35e6, "activity call": "inactive"}
{"target": "Gapdh1", "reagent no.": 1, "Kc cell number, rep 1": 1.35e6, "Kc cell number, rep 2": 1.57e6, "S2R+ cell number, rep 1": 1.18e6, "S2R+ cell number, rep 2": 1.27e6, "activity call": "inactive"}
{"target": "Mad1", "reagent no.": 1, "Kc cell number, rep 1": 1.39e6, "Kc cell number, rep 2": 1.49e6, "S2R+ cell number, rep 1": 1.02e6, "S2R+ cell number, rep 2": 1.02e6, "activity call": "inactive"}
{"target": "CG17738", "reagent no.": 1, "Kc cell number, rep 1": 1.51e6, "Kc cell number, rep 2": 1.55e6, "S2R+ cell number, rep 1": 1.28e6, "S2R+ cell number, rep 2": 1.37e6, "activity call": "inactive"}
{"target": "Ice1", "reagent no.": 1, "Kc cell number, rep 1": 1.26e6, "Kc cell number, rep 2": 1.37e6, "S2R+ cell number, rep 1": 9.01e5, "S2R+ cell number, rep 2": 9.34e5, "activity call": "active"}
{"target": "CG31141", "reagent no.": 1, "Kc cell number, rep 1": 1.09e6, "Kc cell number, rep 2": 1.36e6, "S2R+ cell number, rep 1": 1.06e6, "S2R+ cell number, rep 2": 1.05e6, "activity call": "inactive"}
{"target": "CG2209", "reagent no.": 1, "Kc cell number, rep 1": 1.56e6, "Kc cell number, rep 2": 1.58e6, "S2R+ cell number, rep 1": 1.02e6, "S2R+ cell number, rep 2": 1.17e6, "activity call": "inactive"}
{"target": "CG34354", "reagent no.": 1, "Kc cell number, rep 1": 1.28e6, "Kc cell number, rep 2": 1.56e6, "S2R+ cell number, rep 1": 1.14e6, "S2R+ cell number, rep 2": 1.10e6, "activity call": "inactive"}
{"target": "CG34354", "reagent no.": 2, "Kc cell number, rep 1": 1.19e6, "Kc cell number, rep 2": 1.23e6, "S2R+ cell number, rep 1": 5.34e5, "S2R+ cell number, rep 2": 5.98e5, "activity call": "active"}
{"target": "CG34354", "reagent no.": 3, "Kc cell number, rep 1": 9.54e5, "Kc cell number, rep 2": 9.73e5, "S2R+ cell number, rep 1": 5.17e5, "S2R+ cell number, rep 2": 6.37e5, "activity call": "active"}
{"target": "CG34354", "reagent no.": 4, "Kc cell number, rep 1": 1.44e6, "Kc cell number, rep 2": 1.46e6, "S2R+ cell number, rep 1": 9.96e5, "S2R+ cell number, rep 2": 1.11e6, "activity call": "inactive"}
{"target": "en", "reagent no.": 1, "Kc cell number, rep 1": 1.66e6, "Kc cell number, rep 2": 1.69e6, "S2R+ cell number, rep 1": 1.24e6, "S2R+ cell number, rep 2": 1.42e6, "activity call": "inactive"}
{"target": "CG8490", "reagent no.": 1, "Kc cell number, rep 1": 1.60e6, "Kc cell number, rep 2": 1.67e6, "S2R+ cell number, rep 1": 8.03e5, "S2R+ cell number, rep 2": 1.18e6, "activity call": "inactive"}
{"target": "CG32982", "reagent no.": 1, "Kc cell number, rep 1": 1.18e6, "Kc cell number, rep 2": 1.25e6, "S2R+ cell number, rep 1": 7.84e5, "S2R+ cell number, rep 2": 9.21e5, "activity call": "inactive"}
{"target": "CG32982", "reagent no.": 2, "Kc cell number, rep 1": 1.72e6, "Kc cell number, rep 2": 1.84e6, "S2R+ cell number, rep 1": 1.39e6, "S2R+ cell number, rep 2": 1.46e6, "activity call": "inactive"}
{"target": "CG32982", "reagent no.": 3, "Kc cell number, rep 1": 1.48e6, "Kc cell number, rep 2": 1.50e6, "S2R+ cell number, rep 1": 1.09e6, "S2R+ cell number, rep 2": 1.24e6, "activity call": "inactive"}
{"target": "CG32982", "reagent no.": 4, "Kc cell number, rep 1": 1.65e6, "Kc cell number, rep 2": 1.76e6, "S2R+ cell number, rep 1": 1.17e6, "S2R+ cell number, rep 2": 1.27e6, "activity call": "inactive"}

2 entries from above, sorted by “Kc cell number, rep 1”, lowest first:
{"target": "Sf3b2", "reagent no.": 1, "Kc cell number, rep 1": 8.45e5, "Kc cell number, rep 2": 1.02e6, "S2R+ cell number, rep 1": 3.43e5, "S2R+ cell number, rep 2": 5.41e5, "activity call": "inactive"}
{"target": "SecS", "reagent no.": 1, "Kc cell number, rep 1": 1.41e6, "Kc cell number, rep 2": 1.56e6, "S2R+ cell number, rep 1": 1.24e6, "S2R+ cell number, rep 2": 1.32e6, "activity call": "inactive"}
